Measurements from the supplement of paper PMC12823440, “Inhibitors supercharge kinase turnover through native proteolytic circuits” (Nature, 2025).
Structures can show the parent of a compound that is named as a salt. This is one part of the list. The calls rarely recur for the same compound in another form.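 In K562 cells expressing nanoluciferase-fused kinases, luminescence was recorded at 4 h intervals between 2 and 18 h, normalized as percent of control with DMSO at 100% and a positive control at 0%. A significant (2 sigma) signal drop marks a time point as decreased. The authors' rule for a hit is not shown and takes in more than the number of time points.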

Amino acid sequences for entries named in this document (tags omitted). A change or cut given only in a name is not applied to a line headed by its entry.
UniProt Q6PHR2: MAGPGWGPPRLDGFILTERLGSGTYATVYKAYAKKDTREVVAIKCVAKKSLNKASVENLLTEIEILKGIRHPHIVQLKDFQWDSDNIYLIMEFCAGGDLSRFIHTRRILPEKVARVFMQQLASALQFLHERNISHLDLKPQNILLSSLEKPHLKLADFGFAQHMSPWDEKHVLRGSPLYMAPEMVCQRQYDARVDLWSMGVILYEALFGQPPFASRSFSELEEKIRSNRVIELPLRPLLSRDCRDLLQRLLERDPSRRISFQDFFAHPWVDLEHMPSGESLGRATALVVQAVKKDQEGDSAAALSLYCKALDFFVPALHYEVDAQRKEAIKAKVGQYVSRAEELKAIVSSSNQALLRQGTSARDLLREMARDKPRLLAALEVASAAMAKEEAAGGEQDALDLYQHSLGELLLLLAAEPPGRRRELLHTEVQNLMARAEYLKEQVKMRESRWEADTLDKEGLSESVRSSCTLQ

What follows are compounds tested against ULK3 (UniProt Q6PHR2) (assay: kinase-Nluc reporter destabilization hit call (1 = scored as downregulated) (binary); higher = compound decreases kinase abundance). Conditions: K562; 2-18 h.

kinase-Nluc reporter destabilization hit call, inactive:
CN1CC[C@@H](c2c(O)cc(O)c3c(=O)cc(-c4ccc(C(F)(F)F)cc4Cl)oc23)[C@@H]1CO [Voruciclib (hydrochloride)] (10 µM) 0, O=c1cc(-c2cccc3c2Sc2ccccc2S3)oc(N2CCOCC2)c1 (10 µM) 0, O=[N+]([O-])c1ccc(Nc2nc(N3CCOCC3)nc(N3CCOCC3)n2)cc1 (10 µM) 0, c1ccc(-c2nc(=NCCN3CCOCC3)sn2-c2ccccc2)cc1 [VP3.15 (dihydrobromide)] (10 µM) 0, Nc1nc(N)c2nc(-c3cccc(O)c3)cnc2n1 (10 µM) 0, Nc1ncnc2c1c(-c1ccc(Oc3ccccc3)cc1)nn2C1CCN(CCOCCOCCOc2ccc3c(c2)CN(C2CCC(=O)NC2=O)C3=O)CC1 (stereo unspecified) (2.5 µM) 0, C=CC(=O)N1C[C@H](COc2nc(Nc3cnn(C)c3)nc3[nH]cc(Cl)c23)[C@@H](OC)C1 (2.5 µM) 0, Cc1nn(C)c2c1C(c1ccc(C(F)(F)F)cc1)C(C#N)=C(N)O2 (stereo unspecified) (10 µM) 0, O=C(NC1CCOCC1)c1ccc(-c2cc(-c3c[nH]nc3-c3ccccn3)ccn2)cc1 (10 µM) 0, CC/C(=N\NC(=O)c1ccnc(NCCCN2CCOCC2)c1)c1ccc(Cl)cc1O (2.5 µM) 0, COc1cc(N2CCOCC2)ccc1Nc1ncc(Cl)c(Nc2ccccc2NS(C)(=O)=O)n1 (2.5 µM) 0, Cn1cnc([N+](=O)[O-])c1C[N+](C)(C)C/C=C/C(=O)Nc1cc2c(Nc3ccc(Cl)c(Br)c3)ncnc2cn1 [Tarloxotinib (bromide)] (10 µM) 0, O=C(Nc1cccc(C(F)(F)F)c1)c1cccc2cc(Oc3cc(CO)ncn3)ccc12 (10 µM) 0, Oc1ccc(/C=C/c2cc(O)cc(O)c2)cc1 [Resveratrol] (10 µM) 0, O=c1[nH]c(C2CCCN2)nc2c1oc1ccc(Cl)cc12 (stereo unspecified) [XL413 (hydrochloride)] (10 µM) 0, CN(c1ccc(NC(=O)Nc2ccc(OC(F)(F)F)cc2)cc1)c1ccnc(Nc2cccc(S(N)(=O)=O)c2)n1 (2.5 µM) 0, C=C[C@@](C)(/C=C/c1ccc(O)cc1)CCC=C(C)C [Bakuchiol] (10 µM) 0, COc1cc2ncnc(-n3nc(-c4ccccn4)nc3N)c2cc1OC (10 µM) 0, CNc1nc(Nc2ccc(C(=O)N3CCOCC3)cc2OC)ncc1Cl (2.5 µM) 0, CC(C)S(=O)(=O)c1ccc2nccc(Nc3ccc4scnc4c3)c2c1 (10 µM) 0, CC(C)(O)[C@H]1CC[C@H](Nc2ccc3ncc(-c4cccc(C(F)(F)F)c4)n3n2)CC1 (10 µM) 0, CCN(CC)c1ccc2cc(-c3nc4cc(C)ccc4o3)c(=O)oc2c1 (10 µM) 0, CN(C)S(=O)(=O)c1ccc2c(c1)/C(=C/c1cc3c([nH]1)CCCC3)C(=O)N2 (2.5 µM) 0, C=CC(=O)Nc1cc(Nc2nccc(-n3cc(CN(C)C)c(-c4ccccc4)n3)n2)c(OC)cc1N1CCOCC1 [Lazertinib] (10 µM) 0, Cc1ccc2c(Nc3cccc(Cl)c3F)nccc2c1NC(=O)c1csc2c(N)ncnc12 [Belvarafenib] (10 µM) 0, Oc1cc(O)c2c(c1)OC1(c3ccc(O)c(O)c3)Oc3cc(O)c4c(c3C2C1O)OC(c1ccc(O)c(O)c1)C(O)C4 (stereo unspecified) [Procyanidin A1] (10 µM) 0, c1ccc(-c2nc3c(c(-n4ccc5cnccc54)n2)CCC3)nc1 (10 µM) 0, Cc1cc(C)nc(NS(=O)(=O)c2ccc(NC(=S)NC(=O)COc3ccc(Br)cc3Cl)cc2)n1 (2.5 µM) 0, Cc1ccc(NC(=O)c2ccc(CN(CCN(C)C)C(=O)c3cccnc3)cc2)cc1Nc1nccc(-c2cccnc2)n1 [PDGFRα kinase inhibitor 1] (10 µM) 0, C[C@H](Nc1ncnc2[nH]cnc12)c1cc2ccc(F)cc2nc1-c1ccccn1 (10 µM) 0, CN(C)CCC=C1c2ccccc2CCc2ccccc21 [Amitriptyline (hydrochloride)] (2.5 µM) 0
